# From the supplement of paper PMC8728848
# The other results are listed elsewhere or left out.
# Experiments:
# Assay in all cases: glycan array binding signal (z-score within array); higher = stronger binding
# Settings in all cases: glycan notation: IUPAC condensed, linker removed
# [1] = molecular target: Gal(a1-3)Gal(b1-3)GlcNAc
# Method in brief: (§1)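 Arrays were curated from the Consortium for Functional Glycomics database, 3228 in total, and kept only where the protein sequence was available. Binding is expressed as a within-array Z-score. This score was averaged across arrays of the same protein sequence at different concentrations or buffers and across linkers, and negative values can be read as non-binding.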
# [2] = molecular target: Gal(a1-3)Gal(b1-3)GlcNAc(b1-2)Man
# Method in brief: as §1
# [3] = molecular target: Gal(a1-3)Gal(b1-3)GlcNAc(b1-2)Man(a1-3)[Gal(a1-3)Gal(b1-3)GlcNAc(b1-2)Man(a1-6)]Man(b1-4)GlcNAc(b1-4)GlcNAc
# Method in brief: as §1
# [4] = molecular target: Gal(a1-3)Gal(b1-3)GlcNAc(b1-3)GalNAc
# Method in brief: as §1
# [5] = molecular target: Gal(a1-3)Gal(b1-3)GlcNAc(b1-6)GalNAc
# Method in brief: as §1
# [6] = molecular target: Gal(a1-3)Gal(b1-3)[Fuc(a1-4)]GlcNAc(b1-2)Man(a1-3)[Gal(a1-3)Gal(b1-3)[Fuc(a1-4)]GlcNAc(b1-2)Man(a1-6)]Man(b1-4)GlcNAc(b1-4)GlcNAc
# Method in brief: as §1
# [7] = molecular target: Gal(a1-3)Gal(b1-4)Glc
# Method in brief: as §1
# [8] = molecular target: Gal(a1-3)Gal(b1-4)GlcNAc
# Method in brief: as §1
# [9] = molecular target: Gal(a1-3)Gal(b1-4)GlcNAc(b1-2)Man
# Method in brief: as §1
# [10] = molecular target: Gal(a1-3)Gal(b1-4)GlcNAc(b1-2)Man(a1-3)[Gal(a1-3)Gal(b1-4)GlcNAc(b1-2)Man(a1-6)]Man(b1-4)GlcNAc(b1-4)GlcNAc
# Method in brief: as §1
# [11] = molecular target: Gal(a1-3)Gal(b1-4)GlcNAc(b1-3)GalNAc
# Method in brief: as §1
# [12] = molecular target: Gal(a1-3)Gal(b1-4)GlcNAc(b1-6)GalNAc
# Method in brief: as §1
# [13] = molecular target: Gal(a1-3)Gal(b1-4)[Fuc(a1-3)]GlcNAc
# Method in brief: as §1
# [14] = molecular target: Gal(a1-3)Gal(b1-4)[Fuc(a1-3)]GlcNAc(b1-2)Man(a1-3)[Gal(a1-3)Gal(b1-4)[Fuc(a1-3)]GlcNAc(b1-2)Man(a1-6)]Man(b1-4)GlcNAc(b1-4)GlcNAc
# Method in brief: as §1
# [15] = molecular target: Gal(a1-3)GalNAc
# Method in brief: as §1
# [16] = molecular target: Gal(a1-3)[Gal(a1-4)]Gal(b1-4)GlcNAc
# Method in brief: as §1
# [17] = molecular target: Gal(a1-4)Gal(b1-3)GlcNAc(b1-2)Man(a1-3)[Gal(a1-4)Gal(b1-3)GlcNAc(b1-2)Man(a1-6)]Man(b1-4)GlcNAc(b1-4)GlcNAc
# Method in brief: as §1
# [18] = molecular target: Gal(a1-4)Gal(b1-4)Glc
# Method in brief: as §1
# [19] = molecular target: Gal(a1-4)Gal(b1-4)GlcNAc
# Method in brief: as §1
# [20] = molecular target: Gal(a1-4)Gal(b1-4)GlcNAc(b1-2)Man(a1-3)[Gal(a1-4)Gal(b1-4)GlcNAc(b1-2)Man(a1-6)]Man(b1-4)GlcNAc(b1-4)GlcNAc
# Method in brief: as §1
# [21] = molecular target: Gal(a1-4)Gal(b1-4)GlcNAc(b1-3)Gal(b1-4)Glc
# Method in brief: as §1
# [22] = molecular target: Gal(a1-4)GlcNAc
# Method in brief: as §1
# [23] = molecular target: Gal(a1-6)Glc
# Method in brief: as §1
# [24] = molecular target: Gal(b1-2)Gal
# Method in brief: as §1
# [25] = molecular target: Gal(b1-3)Gal
# Method in brief: as §1
# [26] = molecular target: Gal(b1-3)Gal(b1-4)GlcNAc
# Method in brief: as §1
# [27] = molecular target: Gal(b1-3)GalNAc
# Method in brief: as §1
# [28] = molecular target: Gal(b1-3)GalNAc(a1-3)[Fuc(a1-2)]Gal(b1-4)Glc
# Method in brief: as §1
# [29] = molecular target: Gal(b1-3)GalNAc(a1-3)[Fuc(a1-2)]Gal(b1-4)GlcNAc
# Method in brief: as §1
# [30] = molecular target: Gal(b1-3)GalNAc(b1-3)Gal
# Method in brief: as §1
# [31] = molecular target: Gal(b1-3)GalNAc(b1-3)Gal(a1-4)Gal(b1-4)Glc
# Method in brief: as §1
# [32] = molecular target: Gal(b1-3)GalNAc(b1-4)Gal(b1-4)Glc
# Method in brief: as §1
# [33] = molecular target: Gal(b1-3)GalNAc(b1-4)[Neu5Ac(a2-3)]Gal(b1-4)Glc
# Method in brief: as §1
# [34] = molecular target: Gal(b1-3)GlcNAc
# Method in brief: as §1
# [35] = molecular target: Gal(b1-3)GlcNAc(a1-3)Gal(b1-4)GlcNAc
# Method in brief: as §1
# [36] = molecular target: Gal(b1-3)GlcNAc(a1-6)Gal(b1-4)GlcNAc
# Method in brief: as §1
# [37] = molecular target: Gal(b1-3)GlcNAc(b1-2)Man
# Method in brief: as §1
# [38] = molecular target: Gal(b1-3)GlcNAc(b1-2)Man(a1-3)[Gal(b1-3)GlcNAc(b1-2)Man(a1-6)]Man(b1-4)GlcNAc(b1-4)GlcNAc
# Method in brief: as §1
binder,measurement,setting,value
Loc1 (Escherichia coli) (protein) APCALTNVGEQRGTYILKPLSMKGNLTAEKIENTGNIIECTDLQETTNAIKVHFLTQNALKFKVGSRHYIINFPFEYDGKKIELPGKSSYNLEEMLSAINFTIPYSIASVSDSSNTADIFPGTPFPLLFEIEVSSCTGNNTNCNSVRFNYNLNTILQVNLMTHHHHHH,glycan array binding signal (z-score),[1],-0.498
same,glycan array binding signal (z-score),[2],0.062
same,glycan array binding signal (z-score),[3],-0.241
same,glycan array binding signal (z-score),[4],-0.285
same,glycan array binding signal (z-score),[5],-0.732
same,glycan array binding signal (z-score),[6],-0.81
same,glycan array binding signal (z-score),[7],0.285
same,glycan array binding signal (z-score),[8],-0.512
same,glycan array binding signal (z-score),[9],0.198
same,glycan array binding signal (z-score),[10],-0.634
same,glycan array binding signal (z-score),[11],-0.17
same,glycan array binding signal (z-score),[12],-0.5
same,glycan array binding signal (z-score),[13],0.741
same,glycan array binding signal (z-score),[14],1.32
same,glycan array binding signal (z-score),[15],7.25
same,glycan array binding signal (z-score),[16],-0.079
same,glycan array binding signal (z-score),[17],-0.697
same,glycan array binding signal (z-score),[18],-0.885
same,glycan array binding signal (z-score),[19],0.762
same,glycan array binding signal (z-score),[20],-1.05
same,glycan array binding signal (z-score),[21],0.176
same,glycan array binding signal (z-score),[22],0.019
same,glycan array binding signal (z-score),[23],-0.245
same,glycan array binding signal (z-score),[24],1.18
same,glycan array binding signal (z-score),[25],-0.236
same,glycan array binding signal (z-score),[26],-0.198
same,glycan array binding signal (z-score),[27],0.154
same,glycan array binding signal (z-score),[28],0.497
same,glycan array binding signal (z-score),[29],0.341
same,glycan array binding signal (z-score),[30],-0.837
same,glycan array binding signal (z-score),[31],0.414
same,glycan array binding signal (z-score),[32],-0.233
same,glycan array binding signal (z-score),[33],-0.406
same,glycan array binding signal (z-score),[34],-0.652
same,glycan array binding signal (z-score),[35],-0.463
same,glycan array binding signal (z-score),[36],-0.709
same,glycan array binding signal (z-score),[37],-0.067
same,glycan array binding signal (z-score),[38],-0.094

# At a glance, part of the list above:
binder,measurement,setting,value
Loc1 (Escherichia coli) (protein) APCALTNVGEQRGTYILKPLSMKGNLTAEKIENTGNIIECTDLQETTNAIKVHFLTQNALKFKVGSRHYIINFPFEYDGKKIELPGKSSYNLEEMLSAINFTIPYSIASVSDSSNTADIFPGTPFPLLFEIEVSSCTGNNTNCNSVRFNYNLNTILQVNLMTHHHHHH,glycan array binding signal (z-score),[21],0.176
same,glycan array binding signal (z-score),[22],0.019
same,glycan array binding signal (z-score),[23],-0.245
